Laboratory results reported in PMC12355554, “Development of novel mitochondrial pyruvate carrier inhibitors for breast cancer treatment” (The Journal of Biological Chemistry, 2025).

System: 4T1 cells
Assay: Epifluorescent microscopy of cellular localization with MitoTracker Red
Type: cell-based, murine
Settings: compound fluorescence, GFP filter

| SMILES | cellular localization (overlay with MTR) |
| --- | --- |
| CN(Cc1ccccc1)c1ccc2cc(C(=O)O)c(=O)oc2c1 [C3, 7-(benzyl(methyl)amino)-2-oxo-2H-chromene-3-carboxylic acid] | substantial accumulation in the mitochondria |
| CN(Cc1ccc(F)cc1)c1ccc2cc(C(=O)O)c(=O)oc2c1 [C4, 7-((4-fluorobenzyl)(methyl)amino)-2-oxo-2H-chromene-3-carboxylic acid] | substantial accumulation in the mitochondria |
